From publication PMC7819943, “Rice protein-binding microarrays: a tool to detect cis-acting elements near promoter regions in rice” come the findings set out here.

This is one part of the list.

For the assay, the target named is T1, OsSMF1 (Oryza sativa, UniProt Q6ZLB0 1-436).
T1 sequence: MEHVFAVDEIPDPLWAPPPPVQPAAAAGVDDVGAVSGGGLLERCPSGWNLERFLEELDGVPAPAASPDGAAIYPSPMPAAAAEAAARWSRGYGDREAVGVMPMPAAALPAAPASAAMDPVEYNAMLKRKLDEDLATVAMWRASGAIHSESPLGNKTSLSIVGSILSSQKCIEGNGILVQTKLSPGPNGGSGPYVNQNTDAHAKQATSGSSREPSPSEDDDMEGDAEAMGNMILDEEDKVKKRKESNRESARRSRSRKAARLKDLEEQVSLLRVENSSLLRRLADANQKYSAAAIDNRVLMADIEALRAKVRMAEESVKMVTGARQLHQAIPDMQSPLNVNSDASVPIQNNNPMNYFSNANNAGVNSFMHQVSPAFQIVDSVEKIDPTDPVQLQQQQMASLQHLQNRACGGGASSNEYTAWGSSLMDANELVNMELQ
Put plainly: protein-binding microarray (RPBM); PBS, 2% BSA, 51.3 ng/ul salmon testes DNA, 50 uM zinc acetate, 200 nM TF, 25 C, 1 h; high values mean tight binding. The note with it: protein: recombinant; tags: N-terminal polyhistidine and DsRed monomer fusion (pET32a); chain copies: 2; label: CyDye5-dUTP incorporated in the synthesized complementary strand; 3' TTTTT single-stranded linker to array surface; dsDNA, one strand shown. The method in brief:
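Transcription factors, each fused N-terminally to a polyhistidine tag and DsRed, were expressed in E. coli BL21-CodonPlus and purified on Ni–NTA. A custom Agilent array was made double-stranded by primer extension with Cy5-dUTP and blocked with 2% BSA. It was incubated with 200 nM protein in PBS, 2% BSA, salmon testes DNA and 50 µM zinc acetate at 25 °C for 1 h, then washed. The binding signal is per-feature fluorescence intensity (arbitrary units) read on an Axon 4000B scanner.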
Regarding “GCACTGCTAAAAGATTACTGCAATGTTAATCCTGGAGTACCGGAGTCACCTAGTGCAG”, the binding signal was 35300 fluorescence intensity (a.u.).
For “ATGTTTAATCAACCTCTAAATCAATAAGATTAGTCATGTACGGAGTCACCTAGTGCAG”, the binding signal was 3950 fluorescence intensity (a.u.).
The same measure for “CCCTATATAAACCGCCACGCCACGCCACGGCCACCAACTCCGGAGTCACCTAGTGCAG”: 6640 fluorescence intensity (a.u.); for “TTCCTGCTGCTTGGGCTCGTGATCGTCGTCCGTGTCCTTGCGGAGTCACCTAGTGCAG”: 3300 fluorescence intensity (a.u.).
As for “TAGGAGCATATGAATATATCCATTCCTGCAACATCATCATCGGAGTCACCTAGTGCAG”, the binding signal is 3360 fluorescence intensity (a.u.).
The value for “CTAGGCCCGGTCCACGGTGGACCCAGCGGCTCACCGGCATCGGAGTCACCTAGTGCAG” was 3200 fluorescence intensity (a.u.); that for “CATCCACCGCAATGCTCAAGCTTCCAATGCAATTCTCTCCCGGAGTCACCTAGTGCAG” was 3810 fluorescence intensity (a.u.); that for “CGCCTTCGTCCCATCTCGACCGTCCACGTGTGGCCCATCCCGGAGTCACCTAGTGCAG” was 8200 fluorescence intensity (a.u.).
The same measure for “GAAAGGGTTTGAACGTCTCTGTTCTGGCTTGTCTAAGAGACGGAGTCACCTAGTGCAG”: 3240 fluorescence intensity (a.u.).
For “CCAGCTAGTATTGCACCTCGGTGTAGCGTGAGCCGTGGCCCGGAGTCACCTAGTGCAG”, the binding signal was 6470 fluorescence intensity (a.u.).
The value for “AGCTCGACGCCCTCAAGCGCCTCCTCGCCCTCATCGCCCACGGAGTCACCTAGTGCAG” was 5690 fluorescence intensity (a.u.); that for “GAAAATCAGCTATGGTTGCTCACGTACTGAACTTGTCGTCCGGAGTCACCTAGTGCAG” was 3220 fluorescence intensity (a.u.); that for “CACTGCCATAGTGTGATGAAACATTTATAAACCGTGTCATCGGAGTCACCTAGTGCAG” was 3230 fluorescence intensity (a.u.).
The same measure for “CACTAACTACAAAGCCCCTGCCCACGTATATACATCAGGCCGGAGTCACCTAGTGCAG”: 4370 fluorescence intensity (a.u.).
As for “TTGTTCTAAGCTCTAGCCGCTGCCGTCGTGGCGTAGAGAGCGGAGTCACCTAGTGCAG”, the binding signal is 3480 fluorescence intensity (a.u.).
Turning to “GCTACGGGCTTGACTGTTGCAATCAATCTTTTGTCTGTTGCGGAGTCACCTAGTGCAG”, the binding signal is 3180 fluorescence intensity (a.u.).
The same measure for “ACGCATCCACGTCACTGATGTCCGGGCCCCGCTTAGATGTCGGAGTCACCTAGTGCAG”: 18000 fluorescence intensity (a.u.).
Consider “TACTCCGTACATGTGTTCAAATGTTCGATGTGACGGGGCACGGAGTCACCTAGTGCAG”, for which the binding signal is 4390 fluorescence intensity (a.u.).
The same measure for “GGAACATTGTTTTGAGATGGTTCAGACTTCAGAGAATAATCGGAGTCACCTAGTGCAG”: 27100 fluorescence intensity (a.u.); for “TCCAACTTGGGGAGGGAGGGCCGTTTCAGCTCGGGCTTTTCGGAGTCACCTAGTGCAG”: 3750 fluorescence intensity (a.u.); for “CAACAGTGCTGGCTTCTGCATGTAGACGTGTTCACTCACACGGAGTCACCTAGTGCAG”: 4410 fluorescence intensity (a.u.).
For the sequence “GCTAGGACATGATGTGATCTGGACAGGAAAACGGAAAACGCGGAGTCACCTAGTGCAG”, the binding signal is 3520 fluorescence intensity (a.u.).
For the sequence “GGCTTAAAAGATTCGTTTCATAATTTACACGCAAACTGTACGGAGTCACCTAGTGCAG”, the binding signal was 3890 fluorescence intensity (a.u.).
Regarding “GAAATTGACGCTACAACGACTAACAAAATGCCGAAGCGTCCGGAGTCACCTAGTGCAG”, the binding signal is 3620 fluorescence intensity (a.u.).
Regarding “CTGAAATTCGAAATTTAAAATAAGGAATATTAGAAGTAGACGGAGTCACCTAGTGCAG”, the binding signal is 26300 fluorescence intensity (a.u.).
The value for “CCACGGCACCTTCTCGACCCTGACGCGTGGACCCTCTAGGCGGAGTCACCTAGTGCAG” was 6060 fluorescence intensity (a.u.); that for “AAGGCGCAAAGGGGAAGAGGGGAGCACGACCACCCTCCTCCGGAGTCACCTAGTGCAG” was 34200 fluorescence intensity (a.u.); that for “TTTAAAAGGTCCCCGCTTCAGCTTATTATCAGGTATATACCGGAGTCACCTAGTGCAG” was 23100 fluorescence intensity (a.u.).
For the sequence “GAGAAATATGGGCCACTGACGTGTGGGCCCCACCTAATCACGGAGTCACCTAGTGCAG”, the binding signal was 5610 fluorescence intensity (a.u.).
Consider “CCGGCGGCAACACGTGGACCCTCGCGCGCTTGGGACTTGCCGGAGTCACCTAGTGCAG”, for which the binding signal was 6140 fluorescence intensity (a.u.).
The same measure for “CGGTTATAGTGTGAGTGTGTGCTTGTGTCATGGAATGTGACGGAGTCACCTAGTGCAG”: 4250 fluorescence intensity (a.u.).
As for “ACATCTTCGTCGGCGGCCGCGTCGGCAGCGACTCTCACCTCGGAGTCACCTAGTGCAG”, the binding signal was 4850 fluorescence intensity (a.u.).
With “TTCGCGTTACGTAGCGATTATGTCGTGTATAGCTGTGTGTCGGAGTCACCTAGTGCAG”, the binding signal was 3360 fluorescence intensity (a.u.).
The value for “CGACAACCATGCACGGCCTGGATGAGGTACCAGATACCTCCGGAGTCACCTAGTGCAG” was 29100 fluorescence intensity (a.u.); that for “ATCTAAAACAATGATGACGCGGAAAGCTTGTGAAGAAATCCGGAGTCACCTAGTGCAG” was 9090 fluorescence intensity (a.u.); that for “TTCTGGTTTTAGCCCATGGAAAGCAAACTAGAGTTTGTCCCGGAGTCACCTAGTGCAG” was 4410 fluorescence intensity (a.u.).
For the sequence “GAGATATGCCATCAGTATCTCAATGACATGTAGGACCCACCGGAGTCACCTAGTGCAG”, the binding signal is 3550 fluorescence intensity (a.u.).
For “GTGTCGCCGGACCTGCTCGCCGCAGAGCTACCGGCCAGAGCGGAGTCACCTAGTGCAG”, the binding signal is 32900 fluorescence intensity (a.u.).
The same measure for “ATCTGCAATCCAACGGTCAGGTGGAATAGAGGTGATGTGGCGGAGTCACCTAGTGCAG”: 5160 fluorescence intensity (a.u.).
Turning to “TAGCCGCCACGCGGCGAATCCTCTCCTCCCCTGCGCGGCGCGGAGTCACCTAGTGCAG”, the binding signal is 4890 fluorescence intensity (a.u.).
Take “GTCGTGGGCGGGAGGTGGTGGTGGTGGTGCTGCTGCATTGCGGAGTCACCTAGTGCAG”: the binding signal is 3640 fluorescence intensity (a.u.).
Regarding “TTGCCCTTGCGATGACGAAAAGCTCTTCGGTGGCAACTTGCGGAGTCACCTAGTGCAG”, the binding signal is 3970 fluorescence intensity (a.u.).
“GCCACGTCGTGTCCGTGTGACATGCCACATCAGCACCACACGGAGTCACCTAGTGCAG”: the binding signal was 28400 fluorescence intensity (a.u.).
The value for “TAATCGTGGTCTTGCCTACGTGGCATACTACGTGGGCGATCGGAGTCACCTAGTGCAG” was 20500 fluorescence intensity (a.u.); that for “CCTCGTAAACCCTGCTTGATGAGTTGGCACTGGCAGGTCTCGGAGTCACCTAGTGCAG” was 8280 fluorescence intensity (a.u.); that for “CTGAATATGCCCATAGTCTATCATTATAAAGCCTATAATTCGGAGTCACCTAGTGCAG” was 19100 fluorescence intensity (a.u.).
The value for “CGGGAGCAGAGGCGGTGACGCCGCCGGCGAGCAGCGGAGGCGGAGTCACCTAGTGCAG” was 3380 fluorescence intensity (a.u.).
The value for “GCTATATATCTGTAATACACGTAACGTATATTGTTCTCGCCGGAGTCACCTAGTGCAG” was 4010 fluorescence intensity (a.u.); that for “GTGAAACACGCTTGCATGCATGTGCGCTGGCCACACTCAGCGGAGTCACCTAGTGCAG” was 3690 fluorescence intensity (a.u.); that for “GCCCACTTGCAGTGACACGAACGGACTGCCAGCTCAGCTACGGAGTCACCTAGTGCAG” was 12200 fluorescence intensity (a.u.).
Regarding “AGCCCGCTCGTCCTCCGCTCACCGCCGACGCGGACCAGCACGGAGTCACCTAGTGCAG”, the binding signal is 3620 fluorescence intensity (a.u.).
Regarding “ATGGTTGCCATCAGAGATATCCTTGTTGTCACTGCACATGCGGAGTCACCTAGTGCAG”, the binding signal is 6050 fluorescence intensity (a.u.).
As to “CATTTGTCATGTAGTTAGATGCTGACGTTTAGGCTACAGTCGGAGTCACCTAGTGCAG”, the binding signal is 3340 fluorescence intensity (a.u.).
As to “ATGACTTTCTCTTTGTTGCCGCGTGGTAGGAGCAATCGCACGGAGTCACCTAGTGCAG”, the binding signal is 3800 fluorescence intensity (a.u.).
